No constants are given. Whether binding was seen depends on the method and setting. Binding seen in cells or lysates may run through a third protein. Binding calls can cover weak binding; strength is not graded here.

Chains of the proteins cited; added tags and fusions are not shown. Lines headed by an entry give the natural chain unless they say otherwise; changes in a name come on top.
UniProt E0ZPS2: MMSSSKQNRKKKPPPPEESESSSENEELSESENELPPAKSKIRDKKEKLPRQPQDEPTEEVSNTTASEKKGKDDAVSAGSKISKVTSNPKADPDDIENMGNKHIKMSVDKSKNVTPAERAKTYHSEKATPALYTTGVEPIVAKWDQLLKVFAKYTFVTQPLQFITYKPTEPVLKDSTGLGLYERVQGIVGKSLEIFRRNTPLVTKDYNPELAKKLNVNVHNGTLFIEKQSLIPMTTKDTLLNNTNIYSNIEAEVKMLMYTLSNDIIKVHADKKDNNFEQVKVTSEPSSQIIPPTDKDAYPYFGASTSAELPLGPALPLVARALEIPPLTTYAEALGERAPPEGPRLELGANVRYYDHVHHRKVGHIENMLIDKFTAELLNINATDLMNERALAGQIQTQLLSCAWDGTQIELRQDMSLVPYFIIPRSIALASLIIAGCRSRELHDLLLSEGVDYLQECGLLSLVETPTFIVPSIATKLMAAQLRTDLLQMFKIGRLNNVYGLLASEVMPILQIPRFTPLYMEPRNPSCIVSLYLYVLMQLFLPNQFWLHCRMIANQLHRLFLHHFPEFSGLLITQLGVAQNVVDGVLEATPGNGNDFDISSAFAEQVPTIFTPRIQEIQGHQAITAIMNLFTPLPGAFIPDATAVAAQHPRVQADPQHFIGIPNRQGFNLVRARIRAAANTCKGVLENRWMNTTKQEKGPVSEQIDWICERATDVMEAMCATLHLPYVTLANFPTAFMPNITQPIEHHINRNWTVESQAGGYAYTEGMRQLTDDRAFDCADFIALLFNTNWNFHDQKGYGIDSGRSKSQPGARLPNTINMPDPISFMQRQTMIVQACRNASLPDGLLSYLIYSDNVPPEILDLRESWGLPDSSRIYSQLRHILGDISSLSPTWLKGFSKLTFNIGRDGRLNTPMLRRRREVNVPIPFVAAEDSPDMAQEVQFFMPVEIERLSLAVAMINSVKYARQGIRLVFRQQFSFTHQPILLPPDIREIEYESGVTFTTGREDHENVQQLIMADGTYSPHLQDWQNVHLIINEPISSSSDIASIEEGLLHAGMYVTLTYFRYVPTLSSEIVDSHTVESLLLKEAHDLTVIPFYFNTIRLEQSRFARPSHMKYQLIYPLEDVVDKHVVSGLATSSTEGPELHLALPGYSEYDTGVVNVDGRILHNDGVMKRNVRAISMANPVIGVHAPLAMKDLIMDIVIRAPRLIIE
UniProt E0ZPS1: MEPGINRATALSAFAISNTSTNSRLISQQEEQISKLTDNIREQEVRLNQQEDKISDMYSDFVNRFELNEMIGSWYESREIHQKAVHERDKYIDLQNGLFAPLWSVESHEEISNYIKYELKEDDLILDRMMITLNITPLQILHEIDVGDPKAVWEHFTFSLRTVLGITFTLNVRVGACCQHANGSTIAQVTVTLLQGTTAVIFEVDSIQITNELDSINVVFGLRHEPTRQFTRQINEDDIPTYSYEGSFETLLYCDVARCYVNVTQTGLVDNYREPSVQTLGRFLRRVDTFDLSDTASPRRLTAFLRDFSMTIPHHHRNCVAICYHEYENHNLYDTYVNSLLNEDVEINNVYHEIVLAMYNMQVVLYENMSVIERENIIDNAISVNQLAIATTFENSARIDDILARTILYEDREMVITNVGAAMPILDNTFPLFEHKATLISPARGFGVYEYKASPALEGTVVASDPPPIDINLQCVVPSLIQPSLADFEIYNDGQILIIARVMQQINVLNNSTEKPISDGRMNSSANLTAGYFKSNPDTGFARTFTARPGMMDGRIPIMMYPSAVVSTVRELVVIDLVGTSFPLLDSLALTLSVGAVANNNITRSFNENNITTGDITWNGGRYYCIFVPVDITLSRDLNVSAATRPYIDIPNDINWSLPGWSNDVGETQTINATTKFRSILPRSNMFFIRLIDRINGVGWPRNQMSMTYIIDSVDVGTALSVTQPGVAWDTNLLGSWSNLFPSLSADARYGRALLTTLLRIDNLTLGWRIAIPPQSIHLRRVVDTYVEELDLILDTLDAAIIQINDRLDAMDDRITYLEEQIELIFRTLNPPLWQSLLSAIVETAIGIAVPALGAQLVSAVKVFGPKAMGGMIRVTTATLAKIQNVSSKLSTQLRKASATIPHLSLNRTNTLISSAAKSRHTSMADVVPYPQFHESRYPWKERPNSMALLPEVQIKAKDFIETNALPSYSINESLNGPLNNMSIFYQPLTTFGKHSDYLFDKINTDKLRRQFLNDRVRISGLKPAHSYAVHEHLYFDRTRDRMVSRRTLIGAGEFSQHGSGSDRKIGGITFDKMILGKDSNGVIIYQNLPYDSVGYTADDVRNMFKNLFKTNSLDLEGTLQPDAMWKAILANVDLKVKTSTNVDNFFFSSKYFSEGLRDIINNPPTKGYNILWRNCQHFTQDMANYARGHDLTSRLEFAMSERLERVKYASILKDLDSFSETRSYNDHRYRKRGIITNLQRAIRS

Data on one substance can be found in article PMC2927528.

This assay addresses AmCPV S3 encoded protein p137 (recombinant, from baculovirus-infected Sf9 cells) (Antheraea mylitta cytoplasmic polyhedrosis virus (AmCPV)) (UniProt E0ZPS2). In words: co-sedimentation; Sf9 cells co-infected with S1 and S3 recombinant baculoviruses; VLPs purified on a 10-40% sucrose density gradient and pelleted; SDS-8% PAGE (Coomassie) and immunoblot with anti-p137 and anti-p141 antibodies. A general note: In western blotting, separated proteins are transferred to a membrane and probed.

“AmCPV S1 encoded protein p141 (recombinant, from baculovirus-infected Sf9 cells) (from UniProt E0ZPS1)”: the binding entry is on record as “binds”.
